Data on one substance can be found in article PMC2654408 (PLoS ONE, 2009).

Amino acid sequences for entries named in this document (tags omitted). Residues count along the entry.
UniProt P36544, residues 23-502: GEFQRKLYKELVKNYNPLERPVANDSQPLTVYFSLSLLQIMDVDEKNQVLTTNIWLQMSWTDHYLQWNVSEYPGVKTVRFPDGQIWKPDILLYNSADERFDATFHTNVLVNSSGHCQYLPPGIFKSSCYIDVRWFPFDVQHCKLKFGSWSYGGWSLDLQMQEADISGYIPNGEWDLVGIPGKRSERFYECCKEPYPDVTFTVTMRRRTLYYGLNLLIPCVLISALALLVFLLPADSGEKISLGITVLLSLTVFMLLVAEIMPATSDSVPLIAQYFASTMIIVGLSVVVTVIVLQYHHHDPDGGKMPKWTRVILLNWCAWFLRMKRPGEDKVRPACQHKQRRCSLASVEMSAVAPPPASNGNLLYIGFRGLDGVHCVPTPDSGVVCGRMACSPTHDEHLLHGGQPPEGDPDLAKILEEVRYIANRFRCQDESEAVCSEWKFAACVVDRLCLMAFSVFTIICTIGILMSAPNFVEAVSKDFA
UniProt P60615, residues 22-95: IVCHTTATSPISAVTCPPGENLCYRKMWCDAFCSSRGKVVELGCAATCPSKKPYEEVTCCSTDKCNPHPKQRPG

No constants are given. Whether binding was seen depends on the method and setting. Some entries that bind do so weakly or less than the wild type.

The test concerns the target human alpha-7 nicotinic acetylcholine receptor (human) (UniProt P36544). Kind of test: radioligand binding; only the binder purified.

Take “[125I]alpha-bungarotoxin (from UniProt P60615 22-95) (ligand)”: the binding entry was “binds”.
